Reference: PMC3672107
No constants are given. Whether binding was seen depends on the method and setting. In cells and extracts the contact can be indirect. Some binding calls cover weakened binding; strength is not graded here. Sequences can lack the tags named with a protein.

By UniProt entry, the sequences of proteins in these tests, tags left out. Residues count along the entry.
UniProt P05067, residues 18-770: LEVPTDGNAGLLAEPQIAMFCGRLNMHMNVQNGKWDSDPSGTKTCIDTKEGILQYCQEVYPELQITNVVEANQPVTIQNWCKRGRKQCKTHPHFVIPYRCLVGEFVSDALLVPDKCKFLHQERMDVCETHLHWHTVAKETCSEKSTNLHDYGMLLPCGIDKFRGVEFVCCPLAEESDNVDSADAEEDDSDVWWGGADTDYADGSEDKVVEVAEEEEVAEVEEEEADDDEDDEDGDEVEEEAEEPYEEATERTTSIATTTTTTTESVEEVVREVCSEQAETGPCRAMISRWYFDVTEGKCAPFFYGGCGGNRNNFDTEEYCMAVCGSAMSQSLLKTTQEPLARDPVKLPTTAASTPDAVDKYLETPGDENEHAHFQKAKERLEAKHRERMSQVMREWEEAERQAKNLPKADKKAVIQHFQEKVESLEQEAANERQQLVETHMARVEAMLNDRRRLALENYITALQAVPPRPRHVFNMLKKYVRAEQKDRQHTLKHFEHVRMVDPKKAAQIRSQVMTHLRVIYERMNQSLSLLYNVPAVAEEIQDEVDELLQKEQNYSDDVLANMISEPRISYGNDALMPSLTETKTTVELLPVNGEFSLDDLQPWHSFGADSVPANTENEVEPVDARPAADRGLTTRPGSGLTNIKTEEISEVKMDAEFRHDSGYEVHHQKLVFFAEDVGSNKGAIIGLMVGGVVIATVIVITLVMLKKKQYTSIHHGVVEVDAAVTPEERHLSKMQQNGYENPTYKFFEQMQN
UniProt P56817, residues 46-501: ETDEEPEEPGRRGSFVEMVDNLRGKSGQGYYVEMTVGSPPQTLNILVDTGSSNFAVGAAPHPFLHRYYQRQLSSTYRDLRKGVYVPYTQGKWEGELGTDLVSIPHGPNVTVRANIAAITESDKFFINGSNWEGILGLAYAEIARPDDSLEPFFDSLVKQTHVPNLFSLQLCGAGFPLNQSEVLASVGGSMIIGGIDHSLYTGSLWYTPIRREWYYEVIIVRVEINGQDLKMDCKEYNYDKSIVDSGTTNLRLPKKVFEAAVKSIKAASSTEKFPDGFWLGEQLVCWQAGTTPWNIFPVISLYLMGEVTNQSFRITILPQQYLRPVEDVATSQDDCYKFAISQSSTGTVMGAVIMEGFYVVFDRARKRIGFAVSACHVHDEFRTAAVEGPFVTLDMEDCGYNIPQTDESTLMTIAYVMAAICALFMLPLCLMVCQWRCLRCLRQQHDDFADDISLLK

Tests used:
[1] = target: Amyloid precursor protein (APP), endogenous in HEK293T cells (human (endogenous in HEK293T)) (UniProt P05067); test: co-IP; HEK293T cells transfected with LRRTM3-V5 and BACE1-GFP; lysed in IP buffer (150mM NaCl, 50mM Tris pH 7.5, 0.1% Triton); 1 ug of anti-V5, anti-GFP or CT20 antibody on Dynabeads Protein G, 30 minutes with the lysate, extensively washed; Western blot of the eluted immunocomplexes
[2] = target: BACE1 with a GFP tag (UniProt P56817); test: as above

B1: Leucine rich repeat transmembrane protein 3 (LRRTM3) with a V5 tag (protein, UniProt Q86VH5-1 31-581)
chain: ERGCPKGCRCEGKMVYCESQKLQEIPSSISAGCLGLSLRYNSLQKLKYNQFKGLNQLTWLYLDHNHISNIDENAFNGIRRLKELILSSNRISYFLNNTFRPVTNLRNLDLSYNQLHSLGSEQFRGLRKLLSLHLRSNSLRTIPVRIFQDCRNLELLDLGYNRIRSLARNVFAGMIRLKELHLEHNQFSKLNLALFPRLVSLQNLYLQWNKISVIGQTMSWTWSSLQRLDLSGNEIEAFSGPSVFQCVPNLQRLNLDSNKLTFIGQEILDSWISLNDISLAGNIWECSRNICSLVNWLKSFKGLRENTIICASPKELQGVNVIDAVKNYSICGKSTTERFDLARALPKPTFKPKLPRPKHESKPPLPPTVGATEPGPETDADAEHISFHKIIAGSVALFLSVLVILLVIYVSWKRYPASMKQLQQRSLMRRHRKKKRQSLKQMTPSTQEFYVDYKPTNTETSEMLLNGTGPCTYNKSGSRECEIPLSMNVSTFLAYDQPTISYCGVHHELLSHKSFETNAQEDTMETHLETELDLSTITTAGRISDHKQQLA
- binding [1]: binds
- binding [2]: binds
